# Where a name gives a salt, the structure may show the parent alone. The list shows a part of the results. This data set is noisy: repeats of one test often differ as much as different tests do.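 Human kidney-derived cells stably carry a construct in which eight TEAD-binding elements drive luciferase, measured by luminescence in a drug-repurposing library screen. A hit is any compound whose signal exceeds the plate mean by more than five robust Z scores.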
# Test system: HEK293A TEAD-LUC reporter
# Assay: TEAD-luciferase reporter activity (YAP activation), robust Z score vs plate; higher = stronger YAP/TEAD activation
# Conditions: 24 h
Compound,TEAD-luciferase reporter activity (compound concentration: 200 nM),TEAD-luciferase reporter activity (compound concentration: 2 uM),TEAD-luciferase reporter activity (compound concentration: 10 uM)
CCCCOC(=O)N1CCN(C(=O)C(CP(=O)(OCOC(=O)OC(C)C)OCOC(=O)OC(C)C)NC(=O)c2cc(N3CCC(OC)C3)nc(-c3ccccc3)n2)CC1 (stereo not given),inactive: -0.827,inactive: -1.01,inactive: -0.444
CC1(C)CCC(NC(=O)[C@@H](N)CCC(=O)O)CC1,inactive: -0.358,inactive: -1.52,inactive: -0.853
CS(=O)(=O)c1ccc(Cn2c3c(c4cc(F)cc(F)c42)CCCC3CC(=O)O)cc1 (stereo not given),inactive: -0.559,inactive: -1.05,inactive: -1.33
CSC1SC[C@H]2C(=O)N(C)[C@@H](C(C)C)C(=O)OC[C@@H](NC(=O)c3cnc4ccccc4n3)C(=O)N[C@@H](C)C(=O)N(C)[C@H]1C(=O)N(C)[C@@H](C(C)C)C(=O)OC[C@@H](NC(=O)c1cnc3ccccc3n1)C(=O)N[C@@H](C)C(=O)N2C (stereo not given in full) [Echinomycin],inactive: -0.821,inactive: -1.33,inactive: -1.03
C/N=C(/Cc1ccc2ccccc2c1)NC,inactive: -0.809,inactive: -1.73,inactive: 0.252
COCC1=C(C(=O)OC(C)OC(=O)OC(C)C)N2C(=O)[C@@H](NC(=O)/C(=N\OC)c3csc(N)n3)[C@H]2SC1 (stereo not given in full),inactive: -0.91,,active: 13.7
"COCC1=C(C(=O)OC(C)OC(=O)OC(C)C)N2C(=O)[C@@H](NC(=O)/C(=N\OC)c3csc(N)n3)[C@H]2SC1 (stereo not given in full) [cefpodoxime, MiddleBrook]",,inactive: -0.699,
"CCOC(=O)c1ccc(N)cc1 [benzocaine, Arbor Pharmaceuticals]",inactive: -0.886,inactive: -0.66,inactive: 1.75
CCc1c(O)cc(O)c(C(=O)c2ccc(OCCN3CCOCC3)c(OC)c2)c1CC(=O)N(CCOC)CCOC,inactive: -0.76,inactive: -0.179,inactive: -2.58
CC(C)c1noc(N2CCC(COc3ccc(-c4ccc(S(C)(=O)=O)cc4)nc3)CC2)n1,inactive: -0.587,inactive: -0.973,inactive: -0.134
CC[C@@H]1OC(=O)[C@H](C)[C@H](O[C@H]2CC(C)(OC)[C@@H](O)C(C)O2)[C@@H](C)[C@H](O[C@@H]2OC(C)CC(N(C)C)C2O)C(C)(OC)C[C@H](C)/C(=N\OC)[C@H](C)[C@@H](O)C1(C)O (stereo not given in full),inactive: -1.23,inactive: -0.95,inactive: -0.534
CCOC(=O)COc1ccc2c(C)c(CCN(CC)CC)c(=O)oc2c1Cl [cloricromene],inactive: -0.869,inactive: -0.446,inactive: -1.36
O=C(NCCN1CCN(c2cccc3c2OC[C@H](CO)O3)CC1)c1ccc(F)cc1,inactive: -0.882,inactive: -0.17,inactive: 0.262
CCCN(CCC)c1cc(C)nc2c(-c3cnc(N(C)C)cc3C)c(C)nn12,inactive: 0.45,inactive: -0.977,inactive: -0.855
CCCc1c2nc(C(=O)O)cc(NC)c2cc2c(=O)cc(C(=O)O)oc12,inactive: 1.84,inactive: -1.09,inactive: -0.806
CN(C)C1CCN(C(=O)c2ccc(NC(=O)Nc3ccc(-c4nc(N5CCOCC5)nc(N5CCOCC5)n4)cc3)cc2)CC1 [gedatolisib],inactive: -2.01,inactive: -1.16,inactive: 0.236
O=c1[nH]c2ccccc2n1CCN1CCN(c2cccc(C(F)(F)F)c2)CC1 [Flibanserin],inactive: -2.46,inactive: 0.981,inactive: -0.0168
CNCc1cc(-c2ccccc2F)n(S(=O)(=O)c2cccnc2)c1 [vonoprazan fumarate],inactive: -2.11,inactive: -1.77,inactive: 0.13
CC(C)CC(N)C(=O)NC(Cc1ccc(OCc2ccccc2)cc1)C(=O)NC(CCC(N)=O)C(=O)NC(CC(C)C)C(N)=O (stereo not given),inactive: -3.33,inactive: -0.588,inactive: 2.4
CNC(=O)Cc1ccc2ccn(C3CCN(CCc4ccccc4F)CC3)c2c1,inactive: -1.03,inactive: -1.28,inactive: -0.104
CCN(CC)c1nccc(NCc2ccc(CNc3nc(Cl)ncc3F)cc2)n1,inactive: -1.88,inactive: -1.02,inactive: 0.164
CC(C)NC(=O)NC1CC2(CCN(C(=O)c3ccc4[nH]ccc4c3)CC2)Oc2ccccc21 (stereo not given),inactive: -1.94,,inactive: 0.688
CN1C2CCC1CN(c1cc3c(cc1F)c(=O)c(C(=O)O)cn3C1CC1)C2,inactive: -0.0266,inactive: -0.113,inactive: 0.156
CCc1cc(O)c(Oc2ccc(C(N)=O)cc2F)cc1F,inactive: 1.15,inactive: -1.42,inactive: -0.415
c1ccc2[nH]c(-c3nc4ccccc4[nH]3)nc2c1,inactive: 3.17,active: 5.78,inactive: 4.03
Cc1cccc(C)c1NC(=O)CN1CCCC1,inactive: -0.194,inactive: 3.65,inactive: 2.75

# Complete entries, quoted from the list.
# CC(C)NC(=O)NC1CC2(CCN(C(=O)c3ccc4[nH]ccc4c3)CC2)Oc2ccccc21 (stereo not given) is listed with TEAD-luciferase reporter activity (compound concentration: 200 nM): inactive: -1.94; TEAD-luciferase reporter activity (compound concentration: 10 uM): inactive: 0.688
# CCCCOC(=O)N1CCN(C(=O)C(CP(=O)(OCOC(=O)OC(C)C)OCOC(=O)OC(C)C)NC(=O)c2cc(N3CCC(OC)C3)nc(-c3ccccc3)n2)CC1 (stereo not given) is listed with TEAD-luciferase reporter activity (compound concentration: 200 nM): inactive: -0.827; TEAD-luciferase reporter activity (compound concentration: 2 uM): inactive: -1.01; TEAD-luciferase reporter activity (compound concentration: 10 uM): inactive: -0.444

# Remaining list, next part.

Compound,TEAD-luciferase reporter activity (compound concentration: 200 nM),TEAD-luciferase reporter activity (compound concentration: 2 uM),TEAD-luciferase reporter activity (compound concentration: 10 uM)
COc1cc(N)c(Cl)cc1C(=O)NC1CCN(Cc2ccc(F)cc2)CC1,inactive: -1.82,inactive: -0.438,inactive: 2.21
CON(C)C(=O)N1N=C(c2cc(F)ccc2F)S[C@@]1(CCCN)c1ccccc1 [Filanesib],inactive: -0.0761,inactive: -1.78,inactive: -2.27
O=C(O)CC(NC(=O)[C@@H]1CCCN(C(=O)CCC2CCNCC2)C1)c1cccnc1 (stereo not given in full),inactive: -0.575,inactive: 0.68,inactive: -1.12
CC(=O)Nc1nc2c(Oc3cc(-c4ccc(C(F)(F)F)cc4)ncn3)cccc2s1,inactive: -1.28,inactive: 0.0384,inactive: -1.01
CN(C)CC/C=C1\c2ccccc2CN(C)c2ccccc21,inactive: 0.258,inactive: -0.473,inactive: -1.32
OB1OB2OB(O)OB(O1)O2,inactive: 0.0833,inactive: -0.204,inactive: 0.223
CCOC1O[C@H]([C@@H](COCc2ccccc2)OCc2ccccc2)[C@H](OCc2ccccc2)[C@H]1O (stereo not given in full),inactive: -1.21,inactive: -1.54,inactive: 1.44
C=C1CCN([C@H](C)[C@](O)(Cn2cncn2)c2ccc(F)cc2F)CC1 [Efinaconazole],inactive: -0.795,inactive: 1.6,inactive: -1.43
Nc1ncccc1OCc1ccccc1,inactive: -1.27,inactive: 1.31,inactive: -0.587
N=C(N)c1ccc2cc(OC(=O)c3ccc(CNC(=O)CCCC(=O)O)o3)ccc2c1,inactive: -0.879,inactive: -1.37,inactive: 2.69
O=C(c1c(F)ccc(NS(=O)(=O)N2CC[C@@H](F)C2)c1F)c1c[nH]c2ncc(-c3cnc(C4CC4)nc3)cc12,inactive: -0.308,inactive: 1.23,inactive: -2.05
CCC(=O)N1Cc2ccccc2CC2(CCCCN2CC)C1 (stereo not given),inactive: 1.37,,inactive: -1.19
O=C(CC1CCN(CC2CC2)CC1)c1ccc(F)cc1,inactive: -0.658,inactive: -1.53,inactive: -1.46
CCOc1cc(-c2nccc3cc(OC)c(OC)cc23)cc(OCC)c1OCC,inactive: -1.22,inactive: -2,inactive: -2.42
CC[C@H](C)[C@@H]1NC(=O)[C@H](Cc2ccc(OC)cc2)NC(=O)CCCSC[C@@H](C(=O)N2CCC[C@H]2C(=O)N[C@@H](CC(C)C)C(=O)NCC(N)=O)NC(=O)[C@H](CC(N)=O)NC(=O)[C@H](CCC(N)=O)NC1=O [Carbetocin],inactive: -1.36,inactive: -0.452,inactive: 1.33
CC(C)OC(=O)CCC/C=C\C[C@@H]1[C@@H](/C=C/C(F)(F)COc2ccccc2)[C@H](O)C[C@@H]1O [Tafluprost],inactive: -1.08,inactive: -0.0471,inactive: -1.14
CCCN1CCC[C@@H](c2cccc(S(C)(=O)=O)c2)C1,inactive: -0.388,inactive: -0.234,inactive: 1.09
CN(C)CCCC(=O)N1CCC2(CC1)CC(NC(=O)N(C)C)c1ccccc1O2 (stereo not given),inactive: -0.973,,inactive: 0.941
CN(C)CCNC(=O)NC[C@H]1CC[C@@H]2[C@H](O1)c1cc(C(F)(F)F)ccc1N[C@H]2c1ccccc1,inactive: -2.21,inactive: 3.28,inactive: 1.29
CC1=C(C)C(=O)C(C(CCCCCC(=O)O)c2ccccc2)=C(C)C1=O (stereo not given) [seratrodast],inactive: -0.224,inactive: -1.3,inactive: -0.376
CCc1cc2c(cc1N1CCC(N3CCOCC3)CC1)C(C)(C)c1[nH]c3cc(C#N)ccc3c1C2=O [Alectinib hydrochloride],inactive: -1.3,inactive: -0.257,inactive: 1.72
COc1ccc(C(=O)CC(C)=O)c(OC)c1,inactive: -1.34,inactive: -2.47,inactive: 3.39
CCN(CC)CCN=S(=O)(c1ccccc1)c1ccccc1,inactive: -1.38,inactive: -0.828,active: 6.33
O=C(N/C=C(/c1ccccc1)c1cccs1)c1sc2ccc(C(F)(F)F)cc2c1O,inactive: 2.86,inactive: -0.0602,inactive: 2.23
CC(C(=O)O)c1ccc(N2CC=CC2)c(Cl)c1 (stereo not given) [pirprofen],inactive: -1.12,inactive: -1.46,inactive: -0.364
CCCN(CCC)C(=O)C(Cc1ccc(OCCCN2CCN(C)CC2)cc1)NC(=O)c1ccc(F)cc1 (stereo not given),inactive: 0.826,inactive: -0.257,inactive: -0.453

# — the supplement of paper PMC10735217
